“Also recorded” adds a separate entry of the source.
Biological target: PDZ1/2 domain (Homo sapiens, UniProt P78352)
Details: His beads, eluate by SDS-PAGE

By UniProt entry, the sequences of proteins in these tests, tags left out. Residues count along the entry.
UniProt P78352, 65-246: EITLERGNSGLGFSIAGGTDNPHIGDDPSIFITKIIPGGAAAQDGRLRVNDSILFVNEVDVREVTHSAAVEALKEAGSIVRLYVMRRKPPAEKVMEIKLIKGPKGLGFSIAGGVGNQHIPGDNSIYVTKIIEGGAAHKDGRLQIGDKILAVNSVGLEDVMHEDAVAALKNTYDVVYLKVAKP

CC[C@H](C)[C@H](NC(=O)[C@H](CCC(=O)O)NC(=O)[C@@H](NC(=O)[C@H](CC(=O)O)NC(=O)[C@H](CC(C)C)NC(=O)[C@H](CC(C)C)NC(=O)[C@H](CCCCN)NC(=O)[C@H](CCC(=O)O)NC(=O)[C@H](Cc1ccc(O)cc1)NC(=O)[C@H](CCCNC(=N)N)NC(=O)[C@H](CCCNC(=N)N)NC(=O)[C@H](CCCNC(=N)N)NC(=O)[C@H](CCC(N)=O)NC(=O)[C@H](CCCNC(=N)N)NC(=O)[C@H](CCCNC(=N)N)NC(=O)[C@H](CCCCN)NC(=O)[C@H](CCCCN)NC(=O)[C@H](CCCNC(=N)N)NC(=O)CNC(=O)[C@@H](N)Cc1ccc(O)cc1)[C@@H](C)O)C(=O)O [P5]
binding to PDZ1/2 domain (pull-down): can bind to PDZ1/2 domain; also recorded: capable of binding to PDZ1/2 domain
